PubChem BioAssay AID1671195, Yale University – 2021

Purpose: 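Genes whose knockdown alters LDL uptake in liver cancer cells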 (primary screen)
Cells: human Huh7 hepatoma cells
Knock-down reagent: siRNA pool against human genes, 18 nM
Time to read-out: about 2 to 2.5 days of knockdown, then 8 h LDL uptake
Treatment: DiI-labelled LDL at 30 µg/ml for 8 h, in lipoprotein-deficient serum medium
Detection: 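Fluorescent LDL signal imaged in cells, scaled to the plate median, robust z-score for each replicate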
Direction: robust z-score: higher = more LDL uptake after knockdown
Hit rule: 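a gene counts as active if at least two replicate z-scores exceed ±2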
The whole screen tested about 22,000 reagents; shown is a random part of them. Of all reagents, about 1,510 (6.9%) are marked active. 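Active includes knockdowns raising or lowering LDL uptake; positive z-scores mean more uptake, negative mean less.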 A number with no mark means an inactive call. The numbers tell different reagents against one gene apart. No sequences are given here.

B3GNT5 (GeneID 84002) — robust z-score, replicate 1 = -1.06; robust z-score, replicate 2 = 0.682; robust z-score, replicate 3 = -0.524
IL10 (GeneID 3586) — robust z-score, replicate 1 = 1.19; robust z-score, replicate 2 = 1.71; robust z-score, replicate 3 = 1.5
GLRB (GeneID 2743) — robust z-score, replicate 1 = 1.8; robust z-score, replicate 2 = 1.91; robust z-score, replicate 3 = 1.47
RAB5B (GeneID 5869) — robust z-score, replicate 1 = -0.64; robust z-score, replicate 2 = 1.22; robust z-score, replicate 3 = -0.2
SEM1 (GeneID 7979) #1 — robust z-score, replicate 1 = 2.66 (active); robust z-score, replicate 2 = 0.998; robust z-score, replicate 3 = 3.08
SEM1 (GeneID 7979) #2 — robust z-score, replicate 1 = -0.283; robust z-score, replicate 2 = -0.416; robust z-score, replicate 3 = -1.02
KLC4 (GeneID 89953) — robust z-score, replicate 1 = 0.451; robust z-score, replicate 2 = 0.495; robust z-score, replicate 3 = -0.685
NPM3 (GeneID 10360) — robust z-score, replicate 1 = -1.55; robust z-score, replicate 2 = -1.7; robust z-score, replicate 3 = -1.73
CFAP141 (GeneID 388701) — robust z-score, replicate 1 = 0.125; robust z-score, replicate 2 = 0.237; robust z-score, replicate 3 = 0.75
LOC401085 (retired record) (GeneID 401085) — robust z-score, replicate 1 = 0.547; robust z-score, replicate 2 = 0.312; robust z-score, replicate 3 = 0.516
CLBA1 (GeneID 122616) — robust z-score, replicate 1 = 0.559; robust z-score, replicate 2 = 0.744; robust z-score, replicate 3 = -0.191
SCGB1A1 (GeneID 7356) — robust z-score, replicate 1 = 1.04; robust z-score, replicate 2 = 0.451; robust z-score, replicate 3 = 0.506

The list goes on; the last 3 above are carried over.
LOC401085 (retired record) (GeneID 401085) — robust z-score, replicate 1 = 0.547; robust z-score, replicate 2 = 0.312; robust z-score, replicate 3 = 0.516
CLBA1 (GeneID 122616) — robust z-score, replicate 1 = 0.559; robust z-score, replicate 2 = 0.744; robust z-score, replicate 3 = -0.191
SCGB1A1 (GeneID 7356) — robust z-score, replicate 1 = 1.04; robust z-score, replicate 2 = 0.451; robust z-score, replicate 3 = 0.506
TPCN1 (GeneID 53373) — robust z-score, replicate 1 = -2.23 (active); robust z-score, replicate 2 = -2.73; robust z-score, replicate 3 = -1.94
ZNF775 (GeneID 285971) — robust z-score, replicate 1 = -0.99; robust z-score, replicate 2 = -1.17; robust z-score, replicate 3 = -1.18
LOC401893 (retired record) (GeneID 401893) — robust z-score, replicate 1 = 0.356; robust z-score, replicate 2 = 0.477; robust z-score, replicate 3 = 1.17
ATAD1 (GeneID 84896) — robust z-score, replicate 1 = 2.32 (active); robust z-score, replicate 2 = 2.5; robust z-score, replicate 3 = 3.03
ARPC1B (GeneID 10095) — robust z-score, replicate 1 = 0.553; robust z-score, replicate 2 = -0.114; robust z-score, replicate 3 = 0.22
OSBPL1A (GeneID 114876) — robust z-score, replicate 1 = 0.541; robust z-score, replicate 2 = 1.19; robust z-score, replicate 3 = 0.152
ZCCHC4 (GeneID 29063) — robust z-score, replicate 1 = 0.522; robust z-score, replicate 2 = -0.643; robust z-score, replicate 3 = 0.401
HNRNPKP1 (GeneID 389322) — robust z-score, replicate 1 = -1.6; robust z-score, replicate 2 = -1.33; robust z-score, replicate 3 = -1.57
UAP1 (GeneID 6675) — robust z-score, replicate 1 = 1.04; robust z-score, replicate 2 = 1.31; robust z-score, replicate 3 = 1.08
HINT2 (GeneID 84681) — robust z-score, replicate 1 = -1.52; robust z-score, replicate 2 = -1.6; robust z-score, replicate 3 = -1.68
CPNE9 (GeneID 151835) — robust z-score, replicate 1 = -0.153; robust z-score, replicate 2 = 0.943; robust z-score, replicate 3 = -0.14
SLC11A1 (GeneID 6556) — robust z-score, replicate 1 = -0.504; robust z-score, replicate 2 = -0.19; robust z-score, replicate 3 = -0.427
